Test results: the supplement of paper PMC10032668
The list shows a part of the results. Only hits are listed; about a third recur on repeated control peptides.

Sequences of proteins named here, by UniProt entry; tags and fusion partners are left off.
ADAM29, Q9UKF5, UniProt Q9UKF5, whole entry: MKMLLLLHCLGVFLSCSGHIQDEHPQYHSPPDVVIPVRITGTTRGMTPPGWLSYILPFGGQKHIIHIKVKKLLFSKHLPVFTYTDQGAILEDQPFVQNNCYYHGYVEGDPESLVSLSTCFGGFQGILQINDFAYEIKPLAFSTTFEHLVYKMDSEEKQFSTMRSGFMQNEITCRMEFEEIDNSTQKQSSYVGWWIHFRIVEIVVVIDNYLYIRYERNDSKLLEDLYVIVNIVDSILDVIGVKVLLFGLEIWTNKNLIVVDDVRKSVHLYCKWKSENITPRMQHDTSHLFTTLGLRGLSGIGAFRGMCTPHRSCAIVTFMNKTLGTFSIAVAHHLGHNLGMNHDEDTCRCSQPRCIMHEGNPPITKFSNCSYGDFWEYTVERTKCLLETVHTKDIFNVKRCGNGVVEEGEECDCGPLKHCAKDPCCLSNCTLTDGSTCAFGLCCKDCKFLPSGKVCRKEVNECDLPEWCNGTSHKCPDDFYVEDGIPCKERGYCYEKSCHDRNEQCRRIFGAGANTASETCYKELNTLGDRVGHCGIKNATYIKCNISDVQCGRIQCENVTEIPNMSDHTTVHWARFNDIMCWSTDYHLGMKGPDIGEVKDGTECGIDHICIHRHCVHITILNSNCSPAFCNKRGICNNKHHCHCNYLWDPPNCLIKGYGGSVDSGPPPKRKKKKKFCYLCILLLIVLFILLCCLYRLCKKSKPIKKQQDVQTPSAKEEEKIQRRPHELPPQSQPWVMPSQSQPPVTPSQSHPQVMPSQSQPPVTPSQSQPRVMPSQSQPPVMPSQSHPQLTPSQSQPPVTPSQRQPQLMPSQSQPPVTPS
TUBB6, Q9BUF5, UniProt Q9BUF5, whole entry: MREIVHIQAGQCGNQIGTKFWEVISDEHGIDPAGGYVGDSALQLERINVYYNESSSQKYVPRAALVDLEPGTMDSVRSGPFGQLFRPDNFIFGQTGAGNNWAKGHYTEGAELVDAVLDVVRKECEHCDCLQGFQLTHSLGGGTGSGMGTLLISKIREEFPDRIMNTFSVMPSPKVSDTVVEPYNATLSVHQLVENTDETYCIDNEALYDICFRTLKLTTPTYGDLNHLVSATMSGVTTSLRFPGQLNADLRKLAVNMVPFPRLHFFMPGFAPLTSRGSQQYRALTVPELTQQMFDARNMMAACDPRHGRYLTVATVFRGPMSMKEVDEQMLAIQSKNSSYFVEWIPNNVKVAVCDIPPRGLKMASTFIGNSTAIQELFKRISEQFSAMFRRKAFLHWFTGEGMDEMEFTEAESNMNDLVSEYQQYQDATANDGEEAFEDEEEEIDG

Tests used:
Assay in all cases: PRISMA enrichment of interactor (LFQ) in peptide spot vs all other peptide spots (log2 fold change); higher = stronger / more specific binding of the interactor to the peptide
ADAM29, Q9UKF5 = molecular target: ADAM29, Q9UKF5
Method: (§1)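 PRISMA: 15-aa overlapping tiles (offset 8 aa) of 60 microproteins, plus SOS1/GLUT1 control peptides, were spot-synthesized on cellulose membranes in triplicate. Membranes were incubated with benzonase-treated HEK293T lysate, and bound proteins were identified by LC-MS/MS with LFQ. Enrichment is the log2 fold change of each protein in one spot versus all other spots. Only interactors passing the significance cutoff are listed.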

RBM4, Q9BWF3 = molecular target: RBM4, Q9BWF3
Method: as §1

ADAR, P55265 = molecular target: ADAR, P55265
Method: as §1

ANXA11, P50995 = molecular target: ANXA11, P50995
Method: as §1

C18orf21, Q32NC0 = molecular target: C18orf21, Q32NC0
Method: as §1

C4BPA, P04003 = molecular target: C4BPA, P04003
Method: as §1

CHCHD3, Q9NX63 = molecular target: CHCHD3, Q9NX63
Method: as §1

CMC2, Q9NRP2 = molecular target: CMC2, Q9NRP2
Method: as §1

ENAH, Q8N8S7 = molecular target: ENAH, Q8N8S7
Method: as §1

PDCD11, Q14690 = molecular target: PDCD11, Q14690
Method: as §1

PPP2R2A, P63151 = molecular target: PPP2R2A, P63151
Method: as §1

PSMC5, P62195 = molecular target: PSMC5, P62195
Method: as §1

TXNDC12, O95881 = molecular target: TXNDC12, O95881
Method: as §1

USP7, Q93009 = molecular target: USP7, Q93009
Method: as §1

DHX9, Q08211 = molecular target: DHX9, Q08211
Method: as §1

FIP1L1, Q6UN15 = molecular target: FIP1L1, Q6UN15
Method: as §1

GNL3L, Q9NVN8 = molecular target: GNL3L, Q9NVN8
Method: as §1

HCFC1, P51610 = molecular target: HCFC1, P51610
Method: as §1

MPO, P05164 = molecular target: MPO, P05164
Method: as §1

MRPL4, Q9BYD3 = molecular target: MRPL4, Q9BYD3
Method: as §1

NDUFB10, O96000 = molecular target: NDUFB10, O96000
Method: as §1

PSMC4, P43686 = molecular target: PSMC4, P43686
Method: as §1

TMEM256-PLSCR3 = molecular target: TMEM256-PLSCR3
Method: as §1

TUBB6, Q9BUF5 = molecular target: TUBB6, Q9BUF5
Method: as §1

B1: BANCR (peptide)
chain: SCVRSKNLLVGSGLG
- PRISMA enrichment of interactor (log2) (ADAM29, Q9UKF5): 10.9
- PRISMA enrichment of interactor (log2) (RBM4, Q9BWF3): 4.71

B2: CTD-2366F13.1 (peptide)
chain: RNGLPCMSFSPGGRS
- PRISMA enrichment of interactor (log2) (ADAR, P55265): 6.31
- PRISMA enrichment of interactor (log2) (ANXA11, P50995): 4.44
- PRISMA enrichment of interactor (log2) (C18orf21, Q32NC0): 3.94
- PRISMA enrichment of interactor (log2) (C4BPA, P04003): 4.25
- PRISMA enrichment of interactor (log2) (CHCHD3, Q9NX63): 5.93
- PRISMA enrichment of interactor (log2) (CMC2, Q9NRP2): 4.96
- PRISMA enrichment of interactor (log2) (ENAH, Q8N8S7): 4.59
- PRISMA enrichment of interactor (log2) (PDCD11, Q14690): 5.8
- PRISMA enrichment of interactor (log2) (PPP2R2A, P63151): 4.23
- PRISMA enrichment of interactor (log2) (PSMC5, P62195): 5.37
- PRISMA enrichment of interactor (log2) (TXNDC12, O95881): 4.08
- PRISMA enrichment of interactor (log2) (USP7, Q93009): 5.65

B3: EBAG9 (peptide)
chain: MLRSRVGDWAVGYRP
- PRISMA enrichment of interactor (log2) (ADAR, P55265): 5.45
- PRISMA enrichment of interactor (log2) (DHX9, Q08211): 7.06
- PRISMA enrichment of interactor (log2) (FIP1L1, Q6UN15): 5.93
- PRISMA enrichment of interactor (log2) (GNL3L, Q9NVN8): 5.48
- PRISMA enrichment of interactor (log2) (HCFC1, P51610): 5.23
- PRISMA enrichment of interactor (log2) (MPO, P05164): 5.27
- PRISMA enrichment of interactor (log2) (MRPL4, Q9BYD3): 5.52
- PRISMA enrichment of interactor (log2) (NDUFB10, O96000): 4.63
- PRISMA enrichment of interactor (log2) (PSMC4, P43686): 4.75
- PRISMA enrichment of interactor (log2) (TMEM256-PLSCR3): 5.51
- PRISMA enrichment of interactor (log2) (TUBB6, Q9BUF5): 5.59
